# According to patent publication US7038106B1, “Detection of neural activity” (The University Court of the University of Glasgow, priority 1998, dated 2006):
# For at least one compound, name, drawing or mass did not settle the structure.
# How the values were obtained:
# [1] = test system: mushroom bodies (Kenyon cells) of Drosophila adult brain; assay: Aequorin luminometry of endogenous intracellular calcium oscillation in intact Drosophila brain (GAL4-aeq lines); assay type: cell-based; settings: for Effect on oscillation amplitude: wild type; for Sensitivity of oscillation in rutabaga (rut1) mutant background: defective in calcium-activated adenylyl cyclase
# [2] = test system: Honeybee KCs calcium current; settings: 100 μM (relatively high concentrations); cited from earlier work
# [3] = concentration not stated or dose-dependent
Structure (SMILES),"Effect on oscillation amplitude [1, 3]","Effect on oscillation amplitude ([1]; concentration not stated or dose-dependent, listed as ACh)","Effect on oscillation frequency / period [1, 3]",Sensitivity of oscillation in rutabaga (rut1) mutant background [1],Sensitivity of oscillation in rutabaga (rut1) mutant background ([1]; listed as forskolin),Effect on calcium current [2]
CC(=O)OCC[N+](C)(C)C [Acetylcholine],Reversible reduction of oscillation amplitude,gradually reduces oscillation amplitude in a dose dependent and reversible manner,–,–,–,–
C=C[C@@]1(C)CC(=O)[C@]2(O)[C@@]3(C)[C@@H](O)CCC(C)(C)[C@@H]3[C@H](O)[C@H](OC(C)=O)[C@@]2(C)O1 [Forskolin],reduces oscillation amplitude,–,little effect on period,insensitive,largely insensitive,–
"COC(=O)C1=C(C)NC(C)=C(C(=O)OC)C1c1ccccc1[N+](=O)[O-] [Nefedipine, nifedipine]",–,–,–,–,–,affected
